These are yes or no findings as the source states them, for the method shown. Some binding calls cover weakened binding; strength is not graded here.
B1: hu8B10-b variant, VH N30D (antibody, V domains shown)
VH: QVQLVESGGGVVQPGRSLRLSCAASGFDFDSYGMSWVRQAPGKGLDLVADINSKSYNYATYYADSVKDRFTISRDNSKNTLYLQMNSLRAEDTAVYYCAVHHSDYFEYWGQGTLVTVSS
VL: DIQMTQSPSSLSASVGDRVTITCRASQDIYTNLAWYQQKPGKAPKLLIYHASSLQDGVPSRFSGSGSGTDYTLTISSLQPEDFATYYCLQDSEYPPTFGQGTKVEIKR
notes: also called VH: 8B10-b N30D / VL: 8B10-b
B2: hu8B10-b variant, VL D56S (antibody, V domains shown)
VH: QVQLVESGGGVVQPGRSLRLSCAASGFDFNSYGMSWVRQAPGKGLDLVADINSKSYNYATYYADSVKDRFTISRDNSKNTLYLQMNSLRAEDTAVYYCAVHHSDYFEYWGQGTLVTVSS
VL: DIQMTQSPSSLSASVGDRVTITCRASQDIYTNLAWYQQKPGKAPKLLIYHASSLQSGVPSRFSGSGSGTDYTLTISSLQPEDFATYYCLQDSEYPPTFGQGTKVEIKR
notes: also called VH: 8B10-b / VL: 8B10-b D56S
B3: hu8B10-b variant, VH N57S (antibody, V domains shown)
VH: QVQLVESGGGVVQPGRSLRLSCAASGFDFNSYGMSWVRQAPGKGLDLVADINSKSYSYATYYADSVKDRFTISRDNSKNTLYLQMNSLRAEDTAVYYCAVHHSDYFEYWGQGTLVTVSS
VL: DIQMTQSPSSLSASVGDRVTITCRASQDIYTNLAWYQQKPGKAPKLLIYHASSLQDGVPSRFSGSGSGTDYTLTISSLQPEDFATYYCLQDSEYPPTFGQGTKVEIKR
notes: also called VH: 8B10-b N57S / VL: 8B10-b
B4: hu8B10-b variant, VH N52S (antibody, V domains shown)
VH: QVQLVESGGGVVQPGRSLRLSCAASGFDFNSYGMSWVRQAPGKGLDLVADISSKSYNYATYYADSVKDRFTISRDNSKNTLYLQMNSLRAEDTAVYYCAVHHSDYFEYWGQGTLVTVSS
VL: DIQMTQSPSSLSASVGDRVTITCRASQDIYTNLAWYQQKPGKAPKLLIYHASSLQDGVPSRFSGSGSGTDYTLTISSLQPEDFATYYCLQDSEYPPTFGQGTKVEIKR
notes: also called VH: 8B10-b N52S / VL: 8B10-b
B5: hu8B10-b variant, VH N57D (antibody, V domains shown)
VH: QVQLVESGGGVVQPGRSLRLSCAASGFDFNSYGMSWVRQAPGKGLDLVADINSKSYDYATYYADSVKDRFTISRDNSKNTLYLQMNSLRAEDTAVYYCAVHHSDYFEYWGQGTLVTVSS
VL: DIQMTQSPSSLSASVGDRVTITCRASQDIYTNLAWYQQKPGKAPKLLIYHASSLQDGVPSRFSGSGSGTDYTLTISSLQPEDFATYYCLQDSEYPPTFGQGTKVEIKR
notes: also called VH: 8B10-b N57D / VL: 8B10-b
B6: hu8B10-b variant, VL D56E (antibody, V domains shown)
VH: QVQLVESGGGVVQPGRSLRLSCAASGFDFNSYGMSWVRQAPGKGLDLVADINSKSYNYATYYADSVKDRFTISRDNSKNTLYLQMNSLRAEDTAVYYCAVHHSDYFEYWGQGTLVTVSS
VL: DIQMTQSPSSLSASVGDRVTITCRASQDIYTNLAWYQQKPGKAPKLLIYHASSLQEGVPSRFSGSGSGTDYTLTISSLQPEDFATYYCLQDSEYPPTFGQGTKVEIKR
notes: also called VH: 8B10-b / VL: 8B10-b D56E
B7: hu8B10-b variant, VH N30S (antibody, V domains shown)
VH: QVQLVESGGGVVQPGRSLRLSCAASGFDFSSYGMSWVRQAPGKGLDLVADINSKSYNYATYYADSVKDRFTISRDNSKNTLYLQMNSLRAEDTAVYYCAVHHSDYFEYWGQGTLVTVSS
VL: DIQMTQSPSSLSASVGDRVTITCRASQDIYTNLAWYQQKPGKAPKLLIYHASSLQDGVPSRFSGSGSGTDYTLTISSLQPEDFATYYCLQDSEYPPTFGQGTKVEIKR
notes: also called VH: 8B10-b N30S / VL: 8B10-b
B8: chimeric 8B10 Fab, VH H102W (Fab, V domains shown)
VH: EVKLVESGGGLEQPKGSLKLSCTVSGFDFNSYGMSWVRQAPGKGLDLVADINSKSYNYATYYADSVKDRFTISRDDSQSMVYLEMDNLKTEDTALYYCTVHWSDYFEYWGQGVMVTVSS
VL: DIQMTQSPASLSASLGETVSIECLASEDIYNNLAWYQQKPGKSPQLLIYHASSLQDGVPSRFSGSGSGTQYSLKINSLESEDAATYFCLQDSEYPPTFGGGTKLELKR
B9: chimeric 8B10 Fab, VH I51A (Fab, V domains shown)
VH: EVKLVESGGGLEQPKGSLKLSCTVSGFDFNSYGMSWVRQAPGKGLDLVADANSKSYNYATYYADSVKDRFTISRDDSQSMVYLEMDNLKTEDTALYYCTVHHSDYFEYWGQGVMVTVSS
VL: DIQMTQSPASLSASLGETVSIECLASEDIYNNLAWYQQKPGKSPQLLIYHASSLQDGVPSRFSGSGSGTQYSLKINSLESEDAATYFCLQDSEYPPTFGGGTKLELKR
notes: Rat V domains with human CH1 and CL; E. coli periplasmic extract
B10: chimeric 8B10 Fab, VL N31A (Fab, V domains shown)
VH: EVKLVESGGGLEQPKGSLKLSCTVSGFDFNSYGMSWVRQAPGKGLDLVADINSKSYNYATYYADSVKDRFTISRDDSQSMVYLEMDNLKTEDTALYYCTVHHSDYFEYWGQGVMVTVSS
VL: DIQMTQSPASLSASLGETVSIECLASEDIYANLAWYQQKPGKSPQLLIYHASSLQDGVPSRFSGSGSGTQYSLKINSLESEDAATYFCLQDSEYPPTFGGGTKLELKR
notes: as for B9
B11: chimeric 8B10 Fab, VH S55A (Fab, V domains shown)
VH: EVKLVESGGGLEQPKGSLKLSCTVSGFDFNSYGMSWVRQAPGKGLDLVADINSKAYNYATYYADSVKDRFTISRDDSQSMVYLEMDNLKTEDTALYYCTVHHSDYFEYWGQGVMVTVSS
VL: DIQMTQSPASLSASLGETVSIECLASEDIYNNLAWYQQKPGKSPQLLIYHASSLQDGVPSRFSGSGSGTQYSLKINSLESEDAATYFCLQDSEYPPTFGGGTKLELKR
notes: as for B9
B12: chimeric 8B10 Fab, VH S31A (Fab, V domains shown)
VH: EVKLVESGGGLEQPKGSLKLSCTVSGFDFNAYGMSWVRQAPGKGLDLVADINSKSYNYATYYADSVKDRFTISRDDSQSMVYLEMDNLKTEDTALYYCTVHHSDYFEYWGQGVMVTVSS
VL: DIQMTQSPASLSASLGETVSIECLASEDIYNNLAWYQQKPGKSPQLLIYHASSLQDGVPSRFSGSGSGTQYSLKINSLESEDAATYFCLQDSEYPPTFGGGTKLELKR
notes: as for B9
B13: chimeric 8B10 Fab, VL N31T (Fab, V domains shown)
VH: EVKLVESGGGLEQPKGSLKLSCTVSGFDFNSYGMSWVRQAPGKGLDLVADINSKSYNYATYYADSVKDRFTISRDDSQSMVYLEMDNLKTEDTALYYCTVHHSDYFEYWGQGVMVTVSS
VL: DIQMTQSPASLSASLGETVSIECLASEDIYTNLAWYQQKPGKSPQLLIYHASSLQDGVPSRFSGSGSGTQYSLKINSLESEDAATYFCLQDSEYPPTFGGGTKLELKR
notes: as for B9

These binders were tested against T1, human IL-23R (human, UniProt Q5VWK5 24-353, limits assumed) (assay: BIAcore SPR).
T1 construct: also called huIL-23R; human interleukin-23R
T1 sequence: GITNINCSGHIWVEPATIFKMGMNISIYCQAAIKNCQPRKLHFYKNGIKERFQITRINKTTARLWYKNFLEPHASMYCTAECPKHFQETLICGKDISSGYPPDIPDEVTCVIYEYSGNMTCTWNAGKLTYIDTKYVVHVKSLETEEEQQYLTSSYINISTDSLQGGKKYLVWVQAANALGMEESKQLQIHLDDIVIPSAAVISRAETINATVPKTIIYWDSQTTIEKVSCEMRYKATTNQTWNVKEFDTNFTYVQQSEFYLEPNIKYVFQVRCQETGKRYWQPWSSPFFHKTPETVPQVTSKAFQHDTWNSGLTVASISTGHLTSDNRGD

binding, binds:
B1
B2
B3
B4
B5
B6
B7

These binders were tested against T2, biotinylated huIL-23R-IgG (human, UniProt Q5VWK5 24-353, biotinylated) (assay: ECL binding assay of Fab variants).
T2 construct: not shown: human IgG1 Fc
T2 sequence: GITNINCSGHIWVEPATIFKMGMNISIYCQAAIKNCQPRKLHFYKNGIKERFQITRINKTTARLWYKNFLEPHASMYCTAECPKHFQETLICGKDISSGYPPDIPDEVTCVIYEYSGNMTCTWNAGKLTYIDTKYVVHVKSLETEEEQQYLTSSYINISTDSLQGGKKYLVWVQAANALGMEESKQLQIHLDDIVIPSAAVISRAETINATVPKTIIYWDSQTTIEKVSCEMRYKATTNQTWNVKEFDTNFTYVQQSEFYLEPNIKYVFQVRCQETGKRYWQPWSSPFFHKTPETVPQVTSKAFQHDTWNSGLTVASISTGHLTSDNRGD

binding, binds:
B8
B9
B10
B11
B12
B13

Reference: US20110158992A1 (SCHERING, published 2011)
